From PubChem BioAssay AID1671190 (National Center for Advancing Translational Sciences (NCATS), 2021)
Among all 580,000 compounds or so, about 6,100 (1.1%) were called active. The shares of active, inactive and inconclusive entries below differ from those in the screen. Calls follow the shape of the dose curve; as a rule, active = well fitted inhibition curve with a large enough effect; inconclusive = small, poorly fitted or top-dose-only effect, or another doubt; inactive = no such curve, though single readings can be large or run the other way. A potency beside an inconclusive call is a rough fit, not a confirmed value.

By UniProt entry, the sequences of proteins in these tests, tags left out. Where a name states a change or a piece, a line headed by the entry shows the natural chain unless it says otherwise.
UniProt P18054: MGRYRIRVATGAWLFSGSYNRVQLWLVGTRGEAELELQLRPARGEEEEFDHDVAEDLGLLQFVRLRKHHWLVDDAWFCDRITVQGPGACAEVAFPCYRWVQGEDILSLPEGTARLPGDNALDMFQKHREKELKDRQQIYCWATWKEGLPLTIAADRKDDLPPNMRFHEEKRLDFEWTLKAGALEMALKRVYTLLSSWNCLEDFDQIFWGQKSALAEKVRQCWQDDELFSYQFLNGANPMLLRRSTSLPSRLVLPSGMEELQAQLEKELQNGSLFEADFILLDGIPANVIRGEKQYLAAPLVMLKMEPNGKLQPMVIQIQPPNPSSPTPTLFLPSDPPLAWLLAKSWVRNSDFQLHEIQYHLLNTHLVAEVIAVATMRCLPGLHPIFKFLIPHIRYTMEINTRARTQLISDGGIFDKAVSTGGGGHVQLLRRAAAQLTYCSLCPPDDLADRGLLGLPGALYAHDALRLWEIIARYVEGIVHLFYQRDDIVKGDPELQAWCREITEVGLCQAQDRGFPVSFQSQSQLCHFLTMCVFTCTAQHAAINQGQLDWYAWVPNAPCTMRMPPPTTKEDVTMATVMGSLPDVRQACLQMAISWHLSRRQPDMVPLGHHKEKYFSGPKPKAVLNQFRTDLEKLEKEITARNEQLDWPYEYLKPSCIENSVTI

Target: Polyunsaturated fatty acid lipoxygenase ALOX12 (Homo sapiens) (UniProt P18054)
Experiment: Primary qHTS assay for inhibitors of human arachidonate 12S-lipoxygenase (ALOX12): Round 2
Conditions: purified 12hLO, xylenol orange hydroperoxide absorbance; series mostly up to 108 µM
Description: Assay Provider: Theodore R. Holman Ph.D. University of California, Santa Cruz, California Human lipoxygenase 12hLO is a member of the closely related lipoxygenase family of enzymes which catalyze the site-specific oxidation of arachidonic acid to various hormone precursor molecules and as such is a candidate for drug development in a variety of disease areas, such as cancer and inflammation. Inhibition of 12hLO activity was screened by utilizing arachidonic acid as a substrate. The extent of hydroperoxide product formation was measured by a secondary chromogenic reaction in which xylenol orange (XO, Sigma-Aldrich, cat. number 39,818-7) reacts with the ferric ions produced from the reaction between the hydroperoxide and ferrous ions. The Fe (III)-XO complex is characterized with red-shifted absorbance at 560 nm. A purified preparation of human 12hLO was supplied by Dr. Holman laboratory, University of California, Santa Cruz.
PROTOCOL TABLE SEQUENCE No. (e.g., 1, 2, 3, etc.); […] (e.g., Cells, Incubation, Reagent, etc.); VALUE; DESCRIPTION 1; Enzyme; 3 uL; 150 nM 12hLO enzyme solution dispensed in 1536-well Greiner black, clear bottom plates. 2; Compound; 23 nL; compounds and controls were added. 3; Incubate; 15 min; room temperature. 4; Substrate; 1 uL; 40 uM arachidonic acid (final concentration). 5; Incubate; 30 min; room temperature. 6; Reagent; 4 uL; Fe-XO solution was added to each well. 7; Incubation; 30 min; room temperature 8; Detector; absorbance; Read 1 at 405 nm absorbance using ViewLux (Perkin-Elmer) CCD imager. 9; Detector; absorbance; Read 2 at 573 nm absorbance using ViewLux (Perkin-Elmer) CCD imager. NOTES (numbers refer to sequence above) 1; 150 nM 12hLO (final concentration) in buffer solution (25 mM Hepes, 0.01% Triton X-100, pH 7.0) was dispensed in columns 1, 2, 5-48. Column 1 is neutral (100% activity). Buffer only was dispensed in columns 3 and 4 as no enzyme negative controls. The plates were covered with metal lids with gas-exchange holes. 2; Compounds were pin transferred via a Kalypsys Pin Tool (Wako USA) in column 5-48. Control compound was transferred in column 2, titration of nordihydroguaiaretic acid (NDGA, Sigma-Aldrich, N5023) with top concentration of 20 mM in DMSO then 1:3 dilution in duplicate. Dilution factor of 23 nL into 4 uL final assay volume. 3; Covered assay plates were incubated for 15 min at room temperature. 4; Substrate was added to start the reaction; 40 uM arachidonic acid (Sigma-Aldrich, St. Louis, MO) was dispensed throughout the plate. 6; Chromogenic detection reagent solution (divalent iron/xylenol orange, Fe-XO) was added to each well: 200 uM xylenol orange, 300 uM ferrous ammonium sulfate prepared freshly in 50 mM sulfuric acid. 8, 9; Two absorbance readouts were obtained at 405 nm and at 573 nm using a ViewLux high-throughput CCD plate imager (Perkin-Elmer). The 573 to 405 (Read 2 / Read 1) absorbance ratio was used to compute reaction progress.
Potency is read from the fitted curve at half-maximal effect.

Structure (SMILES)	Potency
COc1ccc(Cl)cc1C(=O)Nc1ccc(-n2cnnn2)cc1	inactive
CCOc1ccc(N(Cc2cc3cccc(C)c3[nH]c2=O)C(=O)C(C)C)cc1	inactive
CC1=C(CC/C(C)=N/NC(N)=S)C(C)(C)CCC1	inconclusive: 10 µM [inhibitor, full curve]
COc1cc(OC)cc(-c2sc3ccc(OC)cc3c2C#CC2(N)CCCCC2)c1	inconclusive: 44.7 µM [inhibitor, partial curve, poor fit]
Cc1cccc(C(=O)Nc2sc3c(c2C(N)=O)CCCCC3)c1	active: 10 µM
C[C@@H]1c2ccccc2N2C[C@H](Cc3ccc(C(=O)c4ccccc4)cc3)C[C@@H]12	inconclusive: 89.1 µM [inhibitor, single point]
O=C1CN(C(=O)c2ccc(Br)o2)C(c2ccc(F)cc2)c2cc(Cl)ccc2N1 (stereo not given)	inactive
CCOC(=O)C1(CCCc2ccccc2)CCN(C(=O)CCCn2cncn2)CC1	inactive
COC(=O)c1ccc(C(=O)NN)cc1	inconclusive: 2 µM [inhibitor, partial curve, poor fit]
Cc1cc2c(cc1C)NC(=O)CC(C(F)(F)C(F)(F)C(F)(F)F)=N2	inconclusive: 158 µM [inhibitor, single point]
CCOc1cc(/C=C/C(=O)c2ccc(Cl)cc2)ccc1O	inconclusive: 17.8 µM [inhibitor, full curve, poor fit]
COCC(=O)N(C)C[C@H]1N[C@@](C)(C(=O)OC)[C@H]2C(=O)N(Cc3ccccc3)C(=O)[C@@H]12	inconclusive: 35.5 µM [inhibitor, partial curve, poor fit]
CCCn1c(Cn2nnc(-c3ccc(F)cc3)n2)nc2cc(S(=O)(=O)N3CCOCC3)ccc21	inactive
O=C(O)c1cccc(N=NN2CCOCC2)c1	inactive
O=C(/C=C/C(=O)c1ccc(Cl)cc1)c1ccccc1	active: 2.51 µM
COc1ccc(N2CCN(C(=O)c3cccc(NS(=O)(=O)c4cccc(F)c4)c3)CC2)cc1	inactive
CCN(CC)CCNC(=O)c1ccc(-n2c(-c3ccccc3)cc3c2CCCC3)cc1	inconclusive: 50.1 µM [inhibitor, partial curve, poor fit]
CNC(=O)NC(=O)C(C)N(C)Cc1ccccc1 (stereo not given)	inconclusive: 44.7 µM [inhibitor, partial curve, poor fit]
CCOc1ccc(S(=O)(=O)N2CCC(C(=O)NCc3ccccn3)CC2)cc1Cl	inactive
O=C(Nc1cccc(F)c1)c1cccnc1	inconclusive: 112 µM [inhibitor, single point]
O=C1C(=O)N(CCCN2CCOCC2)C(c2cccs2)/C1=C(/O)c1ccc2c(c1)OCO2 (stereo not given)	inconclusive: 8.91 µM [inhibitor, full curve, poor fit]
CN1CCc2c(c(N3CCOCC3)nc3sc(C(=O)N4CCOCC4)c(N)c23)C1	inconclusive: 2.51 µM [inhibitor, full curve, poor fit]
Cc1nc(=S)c2ccccc2[nH]1	inconclusive: 14.1 µM [inhibitor, partial curve, poor fit]

Copied from the list.
Potency with CCOc1ccc(S(=O)(=O)N2CCC(C(=O)NCc3ccccn3)CC2)cc1Cl is entered as inactive
Potency with COc1cc(OC)cc(-c2sc3ccc(OC)cc3c2C#CC2(N)CCCCC2)c1 is entered as inconclusive: 44.7 µM [inhibitor, partial curve, poor fit]
Potency with CC1=C(CC/C(C)=N/NC(N)=S)C(C)(C)CCC1 is entered as inconclusive: 10 µM [inhibitor, full curve]

The listing continues.

Structure (SMILES)	Potency
O=[N+]([O-])c1ccccc1CN1CCN(S(=O)(=O)Cc2ccccc2)CC1	inconclusive: 0.631 µM [inhibitor, full curve]
CCc1c(C)[nH]c2ccc(OC)cc2c1=S	inconclusive: 15.8 µM [inhibitor, full curve]
Cc1cc(C)cc(NC(=O)C(Sc2ccc(S(=O)(=O)N3CCOCC3)cn2)c2ccccc2)c1 (stereo not given)	inconclusive: 56.2 µM [inhibitor, single point]
CCc1noc(C)c1C(=O)Nc1nc(-c2ccc(Cl)cc2Cl)c(C)s1	inactive
O=C(c1ncc[nH]1)c1cccs1	inconclusive: 100 µM [inhibitor, single point]
CN(CC(=O)Nc1cccc2ccccc12)C(=O)c1ccc(NS(=O)(=O)c2ccc(F)cc2)cc1	inactive
OC(c1ccc(F)cc1)c1nc(-c2ccccc2)cs1 (stereo not given)	inactive
COc1ccc(CNC(=O)C=C(C)C)cc1	inconclusive: 0.178 µM [inhibitor, full curve, poor fit]
Cc1ccc(-n2c(SCC(N)=O)nc3c(c2=O)C2(CCCC2)Cc2ccccc2-3)cc1	inactive
O=C1/C(=C/c2ccco2)CCc2ccccc21	inconclusive: 56.2 µM [inhibitor, partial curve, poor fit]
CCOC(=O)CC(=O)CSc1nc(CC)c(C)cc1C#N	inconclusive: 112 µM [inhibitor, single point]
COC(=O)[C@]12CCCCC=C1N(Cc1cccc3ccccc13)C(=O)[C@H](CC(=O)N1CCC(c3ccccc3)CC1)C2	inactive
CCOc1cccc(C(=O)Nc2cc(-c3nn4c(C)nnc4s3)ccc2C)c1	inactive
Cc1cc(NC(=O)CSc2ccccc2)no1	inactive
CCCCC[C@@H](C)N1C[C@@H](COCc2ccccc2)Oc2cc(N3CCC[C@H]3COC)ccc2S1(=O)=O	inconclusive: 100 µM [inhibitor, single point]
Fc1ccc(Br)cc1C1C=C(c2ccc(Br)cc2)Nc2nnnn21 (stereo not given)	inconclusive: 50.1 µM [inhibitor, partial curve, poor fit]
Cc1cc(-c2ccccc2)c(C#N)c(N)n1	inactive
CCC(=O)N1Cc2ccccc2CC2(CCN(Cc3ccccc3)C2)C1 (stereo not given)	inconclusive: 112 µM [inhibitor, partial curve, poor fit]
COc1ccc(S(=O)(=O)Oc2ccc3c(c2)O/C(=C\c2sccc2C)C3=O)cc1	inconclusive: 44.7 µM [inhibitor, partial curve, poor fit]
Cc1c(C(=O)NCc2ccc3c(c2)OCO3)sc(=O)n1Cc1ccc(S(C)(=O)=O)cc1	inconclusive: 28.2 µM [inhibitor, partial curve, poor fit]
O=C(CN1CCN(C(=O)C2CCCO2)CC1)Nc1ccc(Cl)c(Cl)c1 (stereo not given)	inconclusive: 14.1 µM [inhibitor, full curve, poor fit]
O=C(CC1N=C2c3ccccc3N=C(SCC(=O)Nc3ccccc3F)N2C1=O)NCc1cccs1 (stereo not given)	inconclusive: 141 µM [inhibitor, single point]
